A short description of the series: Perfume headspace (fragrance burst) on dilution of single perfumes in surfactant shower product, GC headspace. The following applies: 5% sodium laurate shower product diluted through the CMC. Type of series: physicochemical.

As to `C=C(C)[C@H]1CC=C(C)CC1` [Limonene], the fragrance burst is ~95%.

As for `CC(=O)OCc1ccccc1` [Benzyl Acetate], the fragrance burst entry is “no fragrance burst at all”.

As for Tetrahydrolinolool, the fragrance burst is on record as 320%.

In the case of `CC(=O)/C(C)=C/C1C(C)=CCCC1(C)C` (centres unmarked) [γ-methyl ionone], the fragrance burst was 460%.

In the case of `OCCOc1ccccc1` [2-Phenoxyethanol], the fragrance burst entry was “no fragrance burst at all”.

`Cc1ccc(C(C)C)cc1` [p-Cymene] gave a fragrance burst of 120%.

On to `CC1=CCC2CC1C2(C)C` (stereo not drawn) [α-pinene], for which the fragrance burst stood at 50%.

Compound `CC(=O)/C=C/C1C(C)=CCCC1(C)C` (stereo not drawn) [α-ionone] showed a fragrance burst of 430%.

Source of the values: US6998382B2, “Process for making perfume containing surfactant compositions having perfume burst and enhanced perfume deposition when diluted” (Unilever Home & Personal Care USA, a division of Conopco, …, priority 2002, dated 2006).
